For part of these data: A weaker result is weaker than the reference pair of the same experiment. For part of these data: Where a protein sequence is shown, tags need not be part of it. For part of these data: At least one result comes from cells or an extract, where the contact may be indirect. For part of these data: For at least one entry, the source does not settle the construct or the ends of the probe. For part of these data: A negative result means that nothing was seen under these conditions.
How the values were obtained:
[1] = system: lambda h3 MHC-element binding protein (PRDII-BF1) (Homo sapiens); assay: binding assay; settings: protein in a lysate after overexpression, protein details: beta-galactosidase fusion, lambda gt11 lysogen
[2] = target: T1, IgNF-A (NF-A1), ubiquitous octamer-binding protein (Homo sapiens) (UniProt P14859); assay: competition with a labelled probe; settings: NF-A1 in WEHI 231 (mouse) nuclear extract; partial competition; protein in an extract
T1 sequence (looked up, limits assumed): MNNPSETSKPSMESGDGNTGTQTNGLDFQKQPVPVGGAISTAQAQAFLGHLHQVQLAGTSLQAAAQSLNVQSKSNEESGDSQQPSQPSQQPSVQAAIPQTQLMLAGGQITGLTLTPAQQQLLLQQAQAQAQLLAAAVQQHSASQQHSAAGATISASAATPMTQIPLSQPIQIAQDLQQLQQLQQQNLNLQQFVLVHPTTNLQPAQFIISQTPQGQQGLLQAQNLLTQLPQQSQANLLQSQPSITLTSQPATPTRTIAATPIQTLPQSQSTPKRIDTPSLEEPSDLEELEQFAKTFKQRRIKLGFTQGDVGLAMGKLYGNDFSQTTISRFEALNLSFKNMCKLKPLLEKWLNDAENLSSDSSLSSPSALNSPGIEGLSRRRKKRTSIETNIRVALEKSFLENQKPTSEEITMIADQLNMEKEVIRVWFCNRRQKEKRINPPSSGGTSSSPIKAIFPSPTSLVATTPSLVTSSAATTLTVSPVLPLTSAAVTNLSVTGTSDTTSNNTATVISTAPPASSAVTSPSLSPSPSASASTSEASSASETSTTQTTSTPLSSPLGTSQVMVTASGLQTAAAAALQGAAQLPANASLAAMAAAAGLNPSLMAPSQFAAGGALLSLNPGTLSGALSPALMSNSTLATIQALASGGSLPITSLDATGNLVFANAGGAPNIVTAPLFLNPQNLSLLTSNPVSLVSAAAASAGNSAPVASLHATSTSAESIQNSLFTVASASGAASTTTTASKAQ

[3] = target: T2, IgNF-B (NF-A2), lymphoid octamer-binding protein (Homo sapiens) (UniProt P09086); assay: competition with a labelled probe; settings: WEHI 231 nuclear extract; partial competition; purified native protein; protein details: affinity purified from BJAB nuclear extract
T2 sequence (looked up, limits assumed): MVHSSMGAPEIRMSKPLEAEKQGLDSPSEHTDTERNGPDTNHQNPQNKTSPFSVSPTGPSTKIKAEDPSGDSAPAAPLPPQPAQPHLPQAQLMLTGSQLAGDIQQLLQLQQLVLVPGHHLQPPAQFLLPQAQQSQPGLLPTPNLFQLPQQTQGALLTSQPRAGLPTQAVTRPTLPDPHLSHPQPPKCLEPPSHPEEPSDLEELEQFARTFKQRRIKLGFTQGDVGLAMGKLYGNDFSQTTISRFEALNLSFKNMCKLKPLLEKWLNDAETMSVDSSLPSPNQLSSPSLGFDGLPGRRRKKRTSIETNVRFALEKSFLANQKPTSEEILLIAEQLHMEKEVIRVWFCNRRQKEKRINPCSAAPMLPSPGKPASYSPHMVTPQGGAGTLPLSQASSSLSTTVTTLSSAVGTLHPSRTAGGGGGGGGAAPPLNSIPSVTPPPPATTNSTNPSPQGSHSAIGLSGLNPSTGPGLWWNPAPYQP

[4] = system: Oct-2 phage 3 beta-galactosidase fusion (Homo sapiens); assay: competition with a labelled probe; settings: slight competition; protein in a lysate after overexpression; protein details: beta-galactosidase fusion, lambda gt11 lysogen
[5] = system: Oct-2 (pass-3 / 3-1 cDNA) (Homo sapiens); assay: EMSA; settings: KpnI-terminated and 3-1/pass-3 polypeptides; protein translated in vitro
[6] = target: T3, Oct-2 truncated at EagI (cDNA 655-945, helix-turn-helix deleted) (Homo sapiens) (UniProt P09086); assay: EMSA; settings: helix-turn-helix deleted; protein translated in vitro
T3 sequence (looked up): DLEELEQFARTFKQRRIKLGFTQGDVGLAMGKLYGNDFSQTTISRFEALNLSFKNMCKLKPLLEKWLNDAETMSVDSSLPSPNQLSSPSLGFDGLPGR

[7] = system: Oct-2 truncated at StuI (cDNA 655-1443) (Homo sapiens); assay: EMSA; settings: protein translated in vitro
[8] = system: lambda h3 MHC-element binding protein (PRDII-BF1) (Homo sapiens); assay: EMSA; settings: affinity higher than for kappa enhancer site; methylation interference at central Gs; protein in a lysate after overexpression; protein details: beta-galactosidase fusion, lambda gt11 lysogen

Row | Sequence | binding result [2] | binding result [3] | binding result [4] | also measured
1 | AAATCCCCTAAAACGAGGGATAAA (double strand) [lambda ori probe] |  |  |  | binding result ([1]; plaque filter): no binding
2 | ATATTGCAT (double strand) [octamer mutant ATATTGCAT] | binds more weakly | binds more weakly | binds more weakly | 
3 | ATGCAAAT (double strand) [OCTA probe] |  |  |  | binding result [5]: binds; binding result [6]: no binding; binding result [7]: binds; binding result ([1]; plaque filter / renatured blot): no binding
4 | GATCCGGCTGGGGATTCCCCATCT (double strand) [MHC element] |  |  |  | binding result [8]: binds
5 | TCATTTCCAT (double strand) [octamer mutant TCATTTCCAT] | binds more weakly | binds more weakly | binds more weakly | 

From patent US6150090
